Measured values from US20230390240A1, “METHODS OF TREATMENT” (Board of Supervisors of Louisiana State University and …, priority 2020, published 2023).
For at least one compound, name, drawing or mass did not settle the structure.

System: fatty acid transport protein 4 (FATP4)
Test: Immunoblot analysis of FATP4 in the RPE of mice treated daily with drug
Format: in vivo, mouse
Details: one-month-old mice treated daily, oral; Ezetimibe 10 mg/kg, Simvastatin 30 mg/kg; vs DMSO

Structure (SMILES): CCC(C)(C)C(=O)O[C@H]1C[C@@H](C)C=C2C=C[C@H](C)[C@H](CC[C@@H]3C[C@@H](O)CC(=O)O3)[C@H]21 [Simvasatin, Simvastatin]
- expression levels of FATP4 in the retinal pigment epithelium (RPE): devoid of an effect
